Some of the results follow.
Tested on: T1, CTL2-GFP (C. trachomatis L2/434/Bu, GFP-expressing)
T1 construct: L2/434/Bu, GFP-expressing
Set-up: species or system HeLa; Intracellular C. trachomatis growth in HeLa cells, bulk GFP fluorescence relative to DMSO
Conditions: bulk GFP, single well; 28.5 h, 10 µM; inhibitor

Compound | % of control remaining [%]
O=C(CCn1c(=O)oc2ccccc21)N1CC=C(c2ccc(F)cc2)CC1 [CBK295602] | 137.182
CN(C)CCCNC(=O)c1ccnc(/C=N/O)c1 [CBK288434] | 113.937
O=C(O)c1sc2ncccc2c1NS(=O)(=O)c1ccc(C(F)(F)F)cc1[N+](=O)[O-] [CBK050647] | 95.9685
CC(=O)Nc1ccc2nc(NC(=O)c3ccc4c(c3)OCCO4)sc2c1 [CBK287571] | 90.4678
CC(Cc1cccs1)NC(=O)CSCc1ccco1 (centres unmarked) [CBK283238] | 132.369
Cc1ccc(NC(=O)N2CCCC(CO)C2)cc1 (centres unmarked) [CBK156065] | 105.473
c1ccc(C(=NCCN=C(c2ccccc2)c2ccccc2)c2ccccc2)cc1 [CBK262065] | 90.85
O=C(C1CCCN(c2ccc3nncn3n2)C1)N1CCOCC1 (centres unmarked) [CBK287901] | 126.094
Nc1ncc(CN(Cc2ccco2)CC(O)Cn2c3ccccc3c3ccccc32)cn1 (centres unmarked) [CBK286462] | 121.346
COc1ccc(Cl)cc1N1CCN(CCCn2c(=O)[nH]c3ccccc32)CC1 [CBK138338] | 125.222
Cc1c(S(=O)(=O)N2CCN(C3CCN(C)CC3)CC2)sc2ccc(C(C)C)cc12 [CBK170352] | 105.234
CC(=O)NCc1cccc(-c2cc(C(=O)Nc3ccc4c(c3)OCCO4)cnc2-c2cccnc2)c1 [CBK160658] | 117.837
COc1ccc(S(=O)(=O)N2CCC3(CC2)CC(=O)c2ccc(C)cc2O3)cc1OC [CBK166515] | 135.079
CC1CCN(CC(=O)Nc2sc3c(c2C(=O)NCc2ccccc2)CCCC3)CC1 [CBK268387] | 77.3073
CCc1cc2c(NC(CCSC)C(=O)O)nc(C)nc2s1 (centres unmarked) [CBK266709] | 130.816
O=C1CCC(=O)N1Cc1cccc(-c2ccnc(NS(=O)(=O)c3ccc(Cl)cc3)n2)c1 [CBK067436] | 106.614
O=C(/C=C/c1ccco1)Nc1sc2c(c1C(=O)O)CCC2 [CBK263181] | 114.751
O=C(CCn1c(-c2cccnc2)cc2cccnc21)NC1CCCCC1 [CBK282647] | 126.898
CC(C)CNc1n[nH]c(=S)s1 [CBK016865] | 103.688
CC(C)c1cc(C(=O)N(C)Cc2cccc3ncccc23)n(C)n1 [CBK282567] | 108.026
COc1ccc(F)c(CN(CC2CCNCC2)C(=O)Nc2c(C)noc2C)c1 [CBK049811] | 80.9977
CNC(=O)c1ccc(-c2cccc(OC(F)(F)F)c2)nc1NCCOC [CBK106000] | 152.854
C/C(=C1/SC(=S)N(c2cccc(C(=O)O)c2)C1=O)c1cccc([N+](=O)[O-])c1 [CBK265168] | 119.678
Fc1cnc(Nc2ccccc2)nc1N1CCOCC1 [CBK287279] | 138.354
Cc1cc(C)c(C)c(S(=O)(=O)N2CCN(c3ncnc4sc(C)c(C)c34)CC2)c1C [CBK265297] | 121.55
CCCC/C=C/c1cncc(NC(C)CCCC(C)(C)O)n1 (centres unmarked) [CBK065505] | 182.487
C/N=C1/SC(CC(=O)Nc2cccc(C(=O)O)c2)C(=O)N1C (centres unmarked) [CBK265581] | 100

Compound | % of control remaining [%]
Cn1cc(-c2ncc(OCCc3cccs3)nc2N)cn1 [CBK145167] | 152.166
Cn1ccnc1CN(Cc1ccccc1)C1CC(C)(C)NC(C)(C)C1 [CBK283177] | 109.098
O=C(Nc1nnc(C2=COCCO2)o1)c1ccc(-c2ccccc2)cc1 [CBK287407] | 146.777
COc1cc(CNc2ccc(N3CCOCC3)cc2)ccc1OCc1ccc(Cl)cc1Cl [CBK074516] | 85.6895
CC(C)c1nc(NCCc2nnc3n2CCC3)nc(N(C)C)n1 [CBK306409] | 135.623
Cc1n[nH]c(C)c1CCC(=O)N/N=C/c1ccncc1 [CBK262888] | 100
COC(=O)c1c(C(C)(C)C)c(O)c2ccoc2c1OC [CBK007577] | 100
CC(Oc1ccc(Cl)cc1Cl)C(=O)NC1CC(C)(C)NC(C)(C)C1 (centres unmarked) [CBK263951C] | 115.11
Cc1cccc(N2NC(=O)/C(=C/c3cccn3-c3ccc(S(N)(=O)=O)cc3)C2=O)c1 [CBK265660] | 104.428
O=C(CSc1nc2ccccc2o1)N1c2ccccc2Sc2ccc(C(F)(F)F)cc21 [CBK018044] | 73.9077
O=C(Nc1ccc(F)cc1)N1C2CCC1CC(O)(c1cccnc1)C2 (centres unmarked) [CBK281946] | 75.85
Cc1nc(C2CCCN2C(=O)CC2CCCC2)nc2c1CCCN2Cc1ccccn1 (centres unmarked) [CBK286252] | 122.131
O=C(CC1CCCC1)N1CCC(c2nnc3n2CCCCC3)CC1 [CBK284630] | 149.471
Cn1cncc1C(=O)NCc1ccccc1 [CBK200199] | 45.9719
COC1CCN(C(=O)OCCc2cccnc2)CC1 [CBK200161] | 107.815
COc1ccc(-c2oc3ncn4nc(COc5ccccc5C)nc4c3c2-c2ccc(OC)cc2)cc1 [CBK265283] | 118.092
COc1ccc(Sc2nccnc2NC(C)C)cc1OC [CBK115249] | 110.703
O=C(C1CCC1)N1CCC(c2onc3c2CCCCC3)CC1 [CBK284496] | 79.2283
CC(C)C[C@H](NC(=O)NCCN1CCOCC1)C(=O)O [CBK286619] | 134.659
Cc1ccc(NC(=S)NCCNc2ccccn2)cc1Cl [CBK297544] | 167.619
Cc1nn(C2CCCO2)c(=O)nc1N (centres unmarked) [CBK021028] | 125.252
O=C(NCc1ccsc1)NCC1CCN(c2ccncc2)CC1 [CBK306394] | 120.029
Cc1ccccc1Nc1n[nH]c(=S)s1 [CBK015808] | 145.345
CCCN(CCC)C(=O)Cn1cnc2ccc(Cl)cc2c1=O [CBK304651] | 142.182
O=c1nc(NN=C2CCCCC2)cn[nH]1 [CBK018838] | 119.394
O=C(NCCc1cccnc1)Nc1ccc(CN2CCCC2=O)cc1 [CBK306461] | 119.739
Nc1ncc(-c2ccccc2CO)nc1N1CCN(CCO)CC1 [CBK063404] | 181.072

Compound | % of control remaining [%]
Cc1c(NC(=S)NC(=O)C(C)C)cccc1-c1nc2ncccc2o1 [CBK269712] | 118.456
Cc1nc(C)n(C2CN(S(=O)(=O)c3ccc4scnc4c3)C2)n1 [CBK305889] | 144.222
Cc1cc(NC(=O)CN(C)CC(=O)Nc2ccc(Br)cc2C)no1 [CBK260700] | 116.849
COc1ccc(CCCC(=O)Nc2ccc(N3CCNCC3)c3ccccc23)cc1OC [CBK028406T] | 126.722
CN1CCc2c(sc3nc(SCC(=O)c4ccccc4)n(-c4ccccc4)c(=O)c23)C1 [CBK262586] | 119.839
Cc1noc(C2(O)CCN(Cc3sccc3Cl)C2)n1 (centres unmarked) [CBK304863] | 100.393
CN1CCCN(Cc2cccc3ccccc23)CC1 [CBK261531] | 100
COC(=O)c1sccc1NC(=O)Cc1ccccc1[N+](=O)[O-] [CBK268146] | 99.9077
CN(C)CCN1CCN(c2nc(Br)cn3ccnc23)CC1 [CBK037501] | 148.364
COc1ccc(C(C)C)cc1-c1ccc(NS(C)(=O)=O)c2ccccc12 [CBK083747] | 117.234
CC(=O)c1ccccc1NC(C#N)c1ccccc1 (centres unmarked) [CBK057758] | 119.236
O=C(Cn1c(-c2ccc(F)cc2)cc2cccnc21)NC1CC1 [CBK284861] | 107.896
CCc1nnc(NS(=O)(=O)c2ccc(NCc3ccccc3O)cc2)s1 [CBK085149] | 59.9406
CCSc1nnc(Cc2cc(=O)[nH]c(=O)[nH]2)n1-c1ccc(F)cc1 [CBK287500] | 148.231
CN(C)CCNC(=O)c1cncc(-c2ccc(C(=O)N3CCOCC3)cc2)c1 [CBK158619] | 139.381
COc1cccc(C(=O)N2CCN(C(=O)Nc3ccccc3Br)CC2)c1 [CBK154783] | 96.4083
Cc1cc(OCC(=O)Nc2ccccc2N2CCN(S(C)(=O)=O)CC2)ccc1Cl [CBK269410] | 86.0904
O=C(Nc1ccc(C2(c3ccc(NC(=O)c4cccc5ccccc45)cc3)c3ccccc3-c3ccccc32)cc1)c1cccc2ccccc12 [CBK261163] | 89.0166
CCOC(=O)c1c(NC(=O)CSc2nncn2C)sc(C)c1C [CBK267970] | 140.696
CCCCn1nc(C(=O)N2CCCCC2c2ncc(-c3cccc(F)c3)[nH]2)ccc1=O (centres unmarked) [CBK291149] | 110.079
OC(CN1CCC(O)(c2ccc(F)cc2)CC1)c1ccc(-c2ccccc2)cc1 (centres unmarked) [CBK286328] | 81.0044
N#Cc1ccc(CN2CCCN(S(=O)(=O)c3ccc(C(F)(F)F)cc3Cl)CC2)cc1 [CBK062939] | 80.8772
Cc1cc(Sc2nc[nH]n2)c2c(Cl)ccc(Cl)c2n1 [CBK025959] | 103.266
CCOc1ccc(S(=O)(=O)N(C)c2ccc(OCC(=O)O)cc2)cc1 [CBK296119] | 102.886
NC(=O)NC(CC(=O)N1CCc2sccc2C1)c1cccc(Br)c1 (centres unmarked) [CBK305813] | 162.219
Fc1ccc2c(c1)[C@@H](Oc1cncc(NC3CCCNC3)n1)CCO2 (some centres unmarked) [CBK172256G] | 125.045

A few values from the results shown:
Under % of control remaining [%], `CCCCn1nc(C(=O)N2CCCCC2c2ncc(-c3cccc(F)c3)[nH]2)ccc1=O` (centres unmarked) [CBK291149] is listed with 110.079
Under % of control remaining [%], `Cc1cc(OCC(=O)Nc2ccccc2N2CCN(S(C)(=O)=O)CC2)ccc1Cl` [CBK269410] is listed with 86.0904
Under % of control remaining [%], `CCSc1nnc(Cc2cc(=O)[nH]c(=O)[nH]2)n1-c1ccc(F)cc1` [CBK287500] is listed with 148.231
Under % of control remaining [%], `Cc1c(NC(=S)NC(=O)C(C)C)cccc1-c1nc2ncccc2o1` [CBK269712] is listed with 118.456

Reference: PMC12040169 (PLOS Biology, 2025)
